{
  "source": "paper PMC4738311",
  "binders": {"B1": {"name": "Chico, drosophila ortholog of insulin receptor substrate 1 (protein, UniProt Q9XTN2 1-968)", "chain": "MASISDDGMALSGYLKKLKTMKKKFFVLYEETSTSAARLEYYDTEKKFLQRAEPKRVIYLKNCFNINRRLDTKHRFVIVLSSRDGGFGIVLENENDLRKWLDKLLVLQRNIANSNGTAHSPYDHVWQVVIQKKGISEKVGITGTYHCCLTSKSLTFVCIGPEKTPNGEDRVASIEILLTTIRRCGHASPQCIFYVELGRQSVLGSGDLWMETDNAAIATNMHNTILSAMSAKTESNTNLINVYQNRPDLSHEPMRKRSSSANEASKPINVNVIQNSQNSLELRSCSSPHNYGFGRERCDSLPTRNGTLSESSNQTYFGSNHGLRSNTISGIRPHSTNKHSNSPTFTMPLRCSESEESSISVDESDDNGSFSHYRLNTRSSETAIPEENIDDFASAELFSKVTEQNVSDENYIPMNPVNPTDAIHEKEKADMQRLEDASLHFNFPEHASEKLAKDFDLDSDNQCCRPIRAYSIGNKVEHLKFNKRLGHLNDTGQNPNRVRAYSVGSKSKIPRCDLQRVVLVEDNKHEFTANRSQSSITKEGTSYGSSANRQKKSTSAPLLSLKNQINSDRMSDLMEIDFSQATNLEKQKFIKNNEIPKYIENVFPKAPRTDSSSLTLHATSQKDIFNGTKLNNTAITSEDGYLEMKPVGNGYTPSSNCLPMKVEKLKLSDYQTAPPLTATAAPVHDLNKISTYNISAEKWREQPSRSEEKKSNSPLNDNTFSSKPTNVESTSKSHDVHSANQIDCEKVCAQSSDKLNNHLADKIVENNNLDIGGHEEKKLVHSISSEDYTQIKDKSNDFTKFNEAGYKILQIKSDSSLISSKLYQKGIHKDNLERSQRLTESVNTIPDNATATAVSSSSLTKFNINSAKPAAAADSRSTGTDPSTPQNILQIKDLNFPSRSSSRISQPELHYASLDLPHCSGQNPAKYLKRGSRESPPVSACPEDGNTYAKIDFDQSDSSSSSSNIFNT"}, "B2": {"name": "drosophila FBpp0083348 (ortholog of human PK3CB) (protein, UniProt P91634 1-1088)", "chain": "MNMMDNRALAYVAHQPKYETPPEEAEPPCMRFSVNLWKNEMLNWVDLICLLPNGFLLELRVNPANTIQVIKVEMVNQAKQMPLGYVIKEACEYQVYGISTFNIEPYTDETKRLSEVQPYFGILSLGERTDTTSFSSDYELTKMVNGMIGTTFDHNRTHGSPEIDDFRLYMTQTCDNIELERSAYTWQQRLLYEHPLRLANSTKMPELIRERHPTRTFLIVVKNENDQSTFTLSVNEQDTPFSLTESTLQKMNRSQMKMNDRTSDYILKVSGRDEYLLGDYPLIQFLYIQEMLSDSAVPNVVLQSVYRLESYINHHNEQAMVTKRPLPKKRTVHLHKSISSLWDMGNYFQLTLHSISNVNFDKTRALKVGVHVCLYHGDKKLCAQRSTDSPNGNFDTFLFNDLVMDFDIQMRNLPRMTRLCIVIFEVTKMSRSKKSSNNKDIALKDVPYNKNPLAWVNTTIFDHKDILRTGRHTLYTWTYADDIQSVEVFHPLGTIEPNPRKEECALVDLTFLSSGTGTVRYPSEEVVLQYAADREQVNRLQRQLAGPEKPIKELKELMANYTGLDKIYEMVDQDRNAIWERRNDILRELPEELSILLHCVYWKERDDVADMWYLLKQWPLISIERSLELLDYAYPDPAVRRFAIRCLHFLKDEDLLLYLLQLVQAIKHESYLESDLVVFLLERALRNQRIGHYFFWHLRSEMQTPSMQTRFGLLLEVYLKGCKHHVAPLRKQLHVLEKLKQGSLIAKKGSKEKVKTMLQDFLRDQRNSAVFQNIQNPLNPSFRCSGVTPDRCKVMDSKMRPLWVVFENADVNASDVHIIFKNGDDLRQDMLTLQMLRVMDQLWKRDGMDFRMNIYNCISMEKSLGMIEVVRHAETIANIQKEKGMFSATSPFKKGSLLSWLKEHNKPADKLNKAINEFTLSCAGYCVATYVLGVADRHSDNIMVKRNGQLFHIDFGHILGHFKEKLGVRRERVPFVLTHDFVYVINKGFNDRESKEFCHFQELCERAFLVLRKHGCLILSLFSMMISTGLPELSSEKDLDYLRETLVLDYTEEKAREHFRAKFSEALANSWKTSLNWASHNFSKNNKQ"}},
  "key": {"[1]": {"molecular_target": "T1, TAP-tagged Pi3k92e, catalytic subunit of drosophila PI3K (drosophila) (UniProt P91634)", "T1 sequence": "B2 chain", "assay": "affinity purification with mass spectrometry; IP of C-terminally TAP-tagged Pi3k21B or Pi3k92e from stable S2R+ cell lysates (basal or insulin 10 and 30 min), in-solution digestion, LC-MS/MS; hits kept after reciprocal BLAST with the human data and subtraction of empty-TAP controls"}, "[2]": {"molecular_target": "TAP-tagged Pi3k21B (p60), regulatory subunit of drosophila PI3K (drosophila)", "assay": "affinity purification with mass spectrometry; IP of C-terminally TAP-tagged Pi3k21B or Pi3k92e from stable S2R+ cell lysates (basal or insulin 10 and 30 min), in-solution digestion, LC-MS/MS; hits kept after reciprocal BLAST with the human data and subtraction of empty-TAP controls"}},
  "note": "Results are given in words; binding and its absence hold for the method and conditions named. In cells and extracts the contact can be indirect. These calls come from enrichment with a bait or labelling near it, and not all partners need be listed. For some assays here: Sequences can lack the tags named with a protein.",
  "data": [
    {"binder": "B1", "values": [
      {"measurement": "binding", "setting": "[1]", "result": "binds"}
    ]},
    {"binder": "B2", "values": [
      {"measurement": "binding", "setting": "[2]", "result": "binds"}
    ]}
  ]
}
